Reference: patent US20200317813A1, “TREATMENT AND DIAGNOSIS OF NON-PROLIFERATIVE DIABETIC RETINOPATHY” (Johann Wolfgang Goethe-Universitat Frankfurt am Main, priority 2016, published 2020)

Conditions: wild-type and Ins2Akita mice
[1] = sEH inhibitor from the age of 6 weeks

O=C(NC12CC3CC(CC(C3)C1)C2)N[C@H]1CC[C@H](Oc2ccc(C(=O)O)cc2)CC1 (relative stereo) [t-AUCB, trans-4-[4-(3-adamantan-1-ylureido)cyclohexyloxy]-benzoic acid]
did not affect: heart rate (assessed at the age of 12 months) | body weight [1] | fasting blood glucose [1]
